Results as given in the supplement of paper PMC9233669.
This sample is rich in variants without activity.

Key:
biotinyl-Trp-oxazolone = experiment: self-aminoacylation, catalytic enhancement (BWO) (fold over background); higher = more active; k-Seq, kA / k0A0; sequences stand for … in GGGAAUGGAUCCACAUCUACGAAUUC…UUCACUGCAGACUUGACGAAGCUG
In short: (§1)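 The uncatalyzed rate is the low-activity peak of a bimodal Gaussian fit, and catalytic enhancement is median kA divided by it. The kA values came from pseudo-first-order fits, with 1000 bootstraps, of per-sequence fraction reacted measured by streptavidin capture, triplicate qPCR and Illumina sequencing. Mutagenized RNA pools with a 21-nt variable region (0.43 μM) were reacted with each biotinyl-aminoacyl-oxazolone at 2–1250 μM in 50 μL HEPES/NaCl/KCl/MgCl2/CaCl2 buffer with 5% acetonitrile, pH 6.9–7.0, for 90 minutes at room temperature.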

biotinyl-Phe-oxazolone = experiment: self-aminoacylation, catalytic enhancement (BFO) (fold over background); higher = more active; k-Seq, kA / k0A0; sequences stand for … in GGGAAUGGAUCCACAUCUACGAAUUC…UUCACUGCAGACUUGACGAAGCUG
In short: as §1

biotinyl-Ile-oxazolone = experiment: self-aminoacylation, catalytic enhancement (BIO) (fold over background); higher = more active; k-Seq, kA / k0A0; sequences stand for … in GGGAAUGGAUCCACAUCUACGAAUUC…UUCACUGCAGACUUGACGAAGCUG
In short: as §1

biotinyl-Val-oxazolone = experiment: self-aminoacylation, catalytic enhancement (BVO) (fold over background); higher = more active; k-Seq, kA / k0A0; sequences stand for … in GGGAAUGGAUCCACAUCUACGAAUUC…UUCACUGCAGACUUGACGAAGCUG
In short: as §1

biotinyl-Leu-oxazolone = experiment: self-aminoacylation, catalytic enhancement (BLO) (fold over background); higher = more active; k-Seq, kA / k0A0; sequences stand for … in GGGAAUGGAUCCACAUCUACGAAUUC…UUCACUGCAGACUUGACGAAGCUG
In short: as §1

biotinyl-Met-oxazolone = experiment: self-aminoacylation, catalytic enhancement (BMO) (fold over background); higher = more active; k-Seq, kA / k0A0; sequences stand for … in GGGAAUGGAUCCACAUCUACGAAUUC…UUCACUGCAGACUUGACGAAGCUG
In short: as §1

## CUUCUUGAAACAAUCGGUCUG [Fam1A.1 aminoacylation ribozyme variant]
biotinyl-Trp-oxazolone
  self-aminoacylation: 0.71
biotinyl-Phe-oxazolone
  self-aminoacylation: 0.803
biotinyl-Ile-oxazolone
  self-aminoacylation: 0.886
biotinyl-Val-oxazolone
  self-aminoacylation: 0.85
biotinyl-Leu-oxazolone
  self-aminoacylation: 0.928
biotinyl-Met-oxazolone
  self-aminoacylation: 0.762

## GCACACUUCAAGCAAUCAGUC [Fam1B.1 aminoacylation ribozyme variant]
biotinyl-Trp-oxazolone
  self-aminoacylation: 4.94
biotinyl-Phe-oxazolone
  self-aminoacylation: 9.69
biotinyl-Ile-oxazolone
  self-aminoacylation: 1.51
biotinyl-Val-oxazolone
  self-aminoacylation: 1.4
biotinyl-Leu-oxazolone
  self-aminoacylation: 1.44
biotinyl-Met-oxazolone
  self-aminoacylation: 1.47

## GCACACUUCAAGCAAUCGGAC [Fam1B.1 aminoacylation ribozyme variant]
biotinyl-Trp-oxazolone
  self-aminoacylation: 1.4
biotinyl-Phe-oxazolone
  self-aminoacylation: 1.34
biotinyl-Ile-oxazolone
  self-aminoacylation: 1.31
biotinyl-Val-oxazolone
  self-aminoacylation: 1.6
biotinyl-Leu-oxazolone
  self-aminoacylation: 1.34
biotinyl-Met-oxazolone
  self-aminoacylation: 1.03

## GCACACUUCAAGCAAUCGGCC [Fam1B.1 aminoacylation ribozyme variant]
biotinyl-Trp-oxazolone
  self-aminoacylation: 6.96
biotinyl-Phe-oxazolone
  self-aminoacylation: 4.88
biotinyl-Ile-oxazolone
  self-aminoacylation: 3.36
biotinyl-Val-oxazolone
  self-aminoacylation: 3.45
biotinyl-Leu-oxazolone
  self-aminoacylation: 3.49
biotinyl-Met-oxazolone
  self-aminoacylation: 2.99

## GCACACUUCAAGCAAUCGGGC [Fam1B.1 aminoacylation ribozyme variant]
biotinyl-Trp-oxazolone
  self-aminoacylation: 4.23
biotinyl-Phe-oxazolone
  self-aminoacylation: 13.7
biotinyl-Ile-oxazolone
  self-aminoacylation: 3.11
biotinyl-Val-oxazolone
  self-aminoacylation: 3.09
biotinyl-Leu-oxazolone
  self-aminoacylation: 3.02
biotinyl-Met-oxazolone
  self-aminoacylation: 2.58

## GCACACUUCAAGCAAUCGGUC [Fam1B.1 aminoacylation ribozyme variant]
biotinyl-Trp-oxazolone
  self-aminoacylation: 19.8
biotinyl-Phe-oxazolone
  self-aminoacylation: 32.3
biotinyl-Ile-oxazolone
  self-aminoacylation: 1.66
biotinyl-Val-oxazolone
  self-aminoacylation: 1.71
biotinyl-Leu-oxazolone
  self-aminoacylation: 1.82
biotinyl-Met-oxazolone
  self-aminoacylation: 1.47

## GUACCUCAAACAAUCGGUCUG [Fam1A.1 aminoacylation ribozyme variant]
biotinyl-Trp-oxazolone
  self-aminoacylation: 1.93
biotinyl-Phe-oxazolone
  self-aminoacylation: 2.42
biotinyl-Ile-oxazolone
  self-aminoacylation: 1.1
biotinyl-Val-oxazolone
  self-aminoacylation: 1.06
biotinyl-Leu-oxazolone
  self-aminoacylation: 1.35
biotinyl-Met-oxazolone
  self-aminoacylation: 0.976

## GUACUUCAAAAAAUCGGUCUG [Fam1A.1 aminoacylation ribozyme variant]
biotinyl-Trp-oxazolone
  self-aminoacylation: 7.93
biotinyl-Phe-oxazolone
  self-aminoacylation: 7.83
biotinyl-Ile-oxazolone
  self-aminoacylation: 1.57
biotinyl-Val-oxazolone
  self-aminoacylation: 1.11
biotinyl-Leu-oxazolone
  self-aminoacylation: 1.62
biotinyl-Met-oxazolone
  self-aminoacylation: 1.16

## GUACUUCAAACAACCGGUCUG [Fam1A.1 aminoacylation ribozyme variant]
biotinyl-Trp-oxazolone
  self-aminoacylation: 2.02
biotinyl-Phe-oxazolone
  self-aminoacylation: 4.78
biotinyl-Ile-oxazolone
  self-aminoacylation: 1.67
biotinyl-Val-oxazolone
  self-aminoacylation: 1.54
biotinyl-Leu-oxazolone
  self-aminoacylation: 1.23
biotinyl-Met-oxazolone
  self-aminoacylation: 1.21

## GUACUUCAAACAAUAGGUCUG [Fam1A.1 aminoacylation ribozyme variant]
biotinyl-Trp-oxazolone
  self-aminoacylation: 1.5
biotinyl-Phe-oxazolone
  self-aminoacylation: 1.89
biotinyl-Ile-oxazolone
  self-aminoacylation: 1.34
biotinyl-Val-oxazolone
  self-aminoacylation: 1.18
biotinyl-Leu-oxazolone
  self-aminoacylation: 1.14
biotinyl-Met-oxazolone
  self-aminoacylation: 1.28

## GUACUUUAAACAAUCGGUCUG [Fam1A.1 aminoacylation ribozyme variant]
biotinyl-Trp-oxazolone
  self-aminoacylation: 2.08
biotinyl-Phe-oxazolone
  self-aminoacylation: 1.61
biotinyl-Ile-oxazolone
  self-aminoacylation: 1.28
biotinyl-Val-oxazolone
  self-aminoacylation: 1.21
biotinyl-Leu-oxazolone
  self-aminoacylation: 1.01
biotinyl-Met-oxazolone
  self-aminoacylation: 1.06

## GUUACCCUAGUCAUCGAGUGA [Fam2.1 aminoacylation ribozyme variant]
biotinyl-Trp-oxazolone
  self-aminoacylation: 7.77
biotinyl-Phe-oxazolone
  self-aminoacylation: 28.1
biotinyl-Ile-oxazolone
  self-aminoacylation: 3.81
biotinyl-Val-oxazolone
  self-aminoacylation: 3.33
biotinyl-Leu-oxazolone
  self-aminoacylation: 6.93
biotinyl-Met-oxazolone
  self-aminoacylation: 6.66

## GUUACCCUGGUCAUCGAGAGA [Fam2.1 aminoacylation ribozyme variant]
biotinyl-Trp-oxazolone
  self-aminoacylation: 3.07
biotinyl-Phe-oxazolone
  self-aminoacylation: 2.82
biotinyl-Ile-oxazolone
  self-aminoacylation: 1.32
biotinyl-Val-oxazolone
  self-aminoacylation: 1.74
biotinyl-Leu-oxazolone
  self-aminoacylation: 1.9
biotinyl-Met-oxazolone
  self-aminoacylation: 2.96

## GUUACCCUGGUCUUCGAGUGA [Fam2.1 aminoacylation ribozyme variant]
biotinyl-Trp-oxazolone
  self-aminoacylation: 10.1
biotinyl-Phe-oxazolone
  self-aminoacylation: 50.7
biotinyl-Ile-oxazolone
  self-aminoacylation: 4.45
biotinyl-Val-oxazolone
  self-aminoacylation: 5.01
biotinyl-Leu-oxazolone
  self-aminoacylation: 8.79
biotinyl-Met-oxazolone
  self-aminoacylation: 8.47

## GUUCACCUAGGUCAUCGCGUG [Fam2.2 aminoacylation ribozyme variant]
biotinyl-Trp-oxazolone
  self-aminoacylation: 10.6
biotinyl-Phe-oxazolone
  self-aminoacylation: 96.1
biotinyl-Ile-oxazolone
  self-aminoacylation: 6.72
biotinyl-Val-oxazolone
  self-aminoacylation: 6.96
biotinyl-Leu-oxazolone
  self-aminoacylation: 15
biotinyl-Met-oxazolone
  self-aminoacylation: 10.5

## GUUCACCUAGGUCAUCGUGUG [Fam2.2 aminoacylation ribozyme variant]
biotinyl-Trp-oxazolone
  self-aminoacylation: 0.945
biotinyl-Phe-oxazolone
  self-aminoacylation: 0.565
biotinyl-Ile-oxazolone
  self-aminoacylation: 1.08
biotinyl-Val-oxazolone
  self-aminoacylation: 1.22
biotinyl-Leu-oxazolone
  self-aminoacylation: 1.24
biotinyl-Met-oxazolone
  self-aminoacylation: 1.14

## GUUUACCUAGGUCAUCGGGUG [Fam2.2 aminoacylation ribozyme variant]
biotinyl-Trp-oxazolone
  self-aminoacylation: 23.9
biotinyl-Phe-oxazolone
  self-aminoacylation: 201
biotinyl-Ile-oxazolone
  self-aminoacylation: 16.2
biotinyl-Val-oxazolone
  self-aminoacylation: 14.1
biotinyl-Leu-oxazolone
  self-aminoacylation: 39.7
biotinyl-Met-oxazolone
  self-aminoacylation: 29

## UAGGUUGCUAAUAGUCGCAAG [Fam3.1 aminoacylation ribozyme variant]
biotinyl-Trp-oxazolone
  self-aminoacylation: 2.01
biotinyl-Phe-oxazolone
  self-aminoacylation: 1.91
biotinyl-Ile-oxazolone
  self-aminoacylation: 1.4
biotinyl-Val-oxazolone
  self-aminoacylation: 1.2
biotinyl-Leu-oxazolone
  self-aminoacylation: 1.15
biotinyl-Met-oxazolone
  self-aminoacylation: 1.2

## UAGUUUGCUAAUAGUCGCAAG [Fam3.1 aminoacylation ribozyme variant]
biotinyl-Trp-oxazolone
  self-aminoacylation: 3.18
biotinyl-Phe-oxazolone
  self-aminoacylation: 9.38
biotinyl-Ile-oxazolone
  self-aminoacylation: 1.45
biotinyl-Val-oxazolone
  self-aminoacylation: 1.27
biotinyl-Leu-oxazolone
  self-aminoacylation: 1.25
biotinyl-Met-oxazolone
  self-aminoacylation: 1.27

## UCACACGUCAAGCAAUCGGUC [Fam1B.1 aminoacylation ribozyme variant]
biotinyl-Trp-oxazolone
  self-aminoacylation: 0.958
biotinyl-Phe-oxazolone
  self-aminoacylation: 0.861
biotinyl-Ile-oxazolone
  self-aminoacylation: 1.03
biotinyl-Val-oxazolone
  self-aminoacylation: 1.25
biotinyl-Leu-oxazolone
  self-aminoacylation: 1.06
biotinyl-Met-oxazolone
  self-aminoacylation: 0.98

## UCACACUUCAAGCAAUGGGUC [Fam1B.1 aminoacylation ribozyme variant]
biotinyl-Trp-oxazolone
  self-aminoacylation: 0.688
biotinyl-Phe-oxazolone
  self-aminoacylation: 0.633
biotinyl-Ile-oxazolone
  self-aminoacylation: 0.71
biotinyl-Val-oxazolone
  self-aminoacylation: 0.837
biotinyl-Leu-oxazolone
  self-aminoacylation: 0.713
biotinyl-Met-oxazolone
  self-aminoacylation: 0.708

## UCACACUUCAAGCAUUCGGUC [Fam1B.1 aminoacylation ribozyme variant]
biotinyl-Trp-oxazolone
  self-aminoacylation: 1.33
biotinyl-Phe-oxazolone
  self-aminoacylation: 0.838
biotinyl-Ile-oxazolone
  self-aminoacylation: 1.24
biotinyl-Val-oxazolone
  self-aminoacylation: 1.37
biotinyl-Leu-oxazolone
  self-aminoacylation: 1.19
biotinyl-Met-oxazolone
  self-aminoacylation: 1.23

## UCACACUUCAAGCGAUCGGUC [Fam1B.1 aminoacylation ribozyme variant]
biotinyl-Trp-oxazolone
  self-aminoacylation: 1.53
biotinyl-Phe-oxazolone
  self-aminoacylation: 1.82
biotinyl-Ile-oxazolone
  self-aminoacylation: 0.937
biotinyl-Val-oxazolone
  self-aminoacylation: 1.04
biotinyl-Leu-oxazolone
  self-aminoacylation: 0.847
biotinyl-Met-oxazolone
  self-aminoacylation: 1.06

## UCUCACUUCAAGCAAUCGGUC [Fam1B.1 aminoacylation ribozyme variant]
biotinyl-Trp-oxazolone
  self-aminoacylation: 21.5
biotinyl-Phe-oxazolone
  self-aminoacylation: 44.5
biotinyl-Ile-oxazolone
  self-aminoacylation: 1.23
biotinyl-Val-oxazolone
  self-aminoacylation: 1.35
biotinyl-Leu-oxazolone
  self-aminoacylation: 1.71
biotinyl-Met-oxazolone
  self-aminoacylation: 1.15

## UUACUUCAAUCAAUCGGUCUG [Fam1A.1 aminoacylation ribozyme variant]
biotinyl-Trp-oxazolone
  self-aminoacylation: 15
biotinyl-Phe-oxazolone
  self-aminoacylation: 19.7
biotinyl-Ile-oxazolone
  self-aminoacylation: 1.46
biotinyl-Val-oxazolone
  self-aminoacylation: 1.34
biotinyl-Leu-oxazolone
  self-aminoacylation: 1.75
biotinyl-Met-oxazolone
  self-aminoacylation: 1.5

## UUCACCCUGGUCAUCGAGUGA [Fam2.1 aminoacylation ribozyme variant]
biotinyl-Trp-oxazolone
  self-aminoacylation: 12.7
biotinyl-Phe-oxazolone
  self-aminoacylation: 13.2
biotinyl-Ile-oxazolone
  self-aminoacylation: 5.88
biotinyl-Val-oxazolone
  self-aminoacylation: 6.29
biotinyl-Leu-oxazolone
  self-aminoacylation: 10.6
biotinyl-Met-oxazolone
  self-aminoacylation: 11.3

## UUUACCGUGGUCAUCGAGUGA [Fam2.1 aminoacylation ribozyme variant]
biotinyl-Trp-oxazolone
  self-aminoacylation: 7.07
biotinyl-Phe-oxazolone
  self-aminoacylation: 17.7
biotinyl-Ile-oxazolone
  self-aminoacylation: 3.2
biotinyl-Val-oxazolone
  self-aminoacylation: 3.63
biotinyl-Leu-oxazolone
  self-aminoacylation: 5.18
biotinyl-Met-oxazolone
  self-aminoacylation: 5.63

## UUUCACCUAGCUCAUCGGGUG [Fam2.2 aminoacylation ribozyme variant]
biotinyl-Trp-oxazolone
  self-aminoacylation: 2.5
biotinyl-Phe-oxazolone
  self-aminoacylation: 1.68
biotinyl-Ile-oxazolone
  self-aminoacylation: 2.03
biotinyl-Val-oxazolone
  self-aminoacylation: 2.73
biotinyl-Leu-oxazolone
  self-aminoacylation: 2.24
biotinyl-Met-oxazolone
  self-aminoacylation: 1.77
